## Primary screen of a compound library

The values are deposited in ChEMBL (CHEMBL3988442, “University of Dundee, Small-Polar-MMV Screening Library” (2021)).

A: 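Whole-cell growth test on Mycobacterium tuberculosis, read after 4 days in a medium based on cholesterol and the lipid DPPC; the read-out is not stated. Concentration: 50 µM. Direction is inferred from retests: higher values go with more growth inhibition. Size under these conditions: about 69,000 compounds, about 370 of them at 50% or above in at least one test.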
B: 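Phenotypic screen: M. tuberculosis growth, glucose 7H9 medium, 3 days; the read-out is not stated. Compounds at 50 µM. The record gives no direction; compounds that gave an IC50 in retests scored well above the rest, so higher reads as more growth inhibition. Size under these conditions: about 69,000 compounds, about 760 of them at 50% or above in at least one test.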

Results are given as percent effect.
The controls that fix the scale are not given in the record; negative values are as filed.
This is an unselected part of the compounds tested.
Two or more numbers in one place are separate tests of the same structure; such repeats can differ widely.

SMILES,A,B
CCNc1ncc2c(n1)CN(c1ccc(Cl)cc1)C2=O,19.03%,26.92%
COc1cccc2c1OCCCN(Cc1c[nH]nc1C(=O)O)C2,-3.929%,3.013% & 23.43%
COc1cc(NC2CCN(C3CCS(=O)(=O)CC3)CC2)ncn1,6.091%,-0.9639%
CC(C)C1=NOC2(CCN(S(C)(=O)=O)CC2)C1,5.443%,9.183%
CNc1ncc2c(n1)CN(CCc1ccc(Cl)cc1)C2=O,-4.909%,9%
COc1cc(OC)cc(-n2ccnc2-c2cc3n(n2)CCNC3)c1,-8.485%,-24.13%
COCc1nc(C(=O)NS(=O)(=O)c2ccc(C)c(C)c2)cs1,-16.48%,-3.394% & -7.732%
CCc1cnc(CN(C)C2CCN(c3sccc3C#N)C2=O)s1 (centres unmarked),2.406%,0.9359%
O=C(O)C(F)(F)F.[H][C@@]12CCN(c3ccc(C)nn3)[C@@]1([H])CCN2C(=O)c1cscn1,-6.777%,0.8964%
COc1cc(OC)cc(C2SCC(=O)Nc3ccsc32)c1 (centres unmarked),-3.641% & 6.603%,6.741%
NC(=O)C1=NC2=NS(=O)(=O)c3ccccc3N2N1Cc1ccc(Br)cc1,38.82%,13.44%
O=C(CC1CN(Cc2ccccc2)CCO1)NCCN1CCOCC1 (centres unmarked),-33.93%,-24.84%
CS(=O)(=O)c1ccc(CN2CCCCC2c2cccc(F)c2)cc1 (centres unmarked),-5.018%,38.06%
Cc1ccc(CN2CC(C(=O)Nc3ccccc3)C3(CCOCC3)C2)o1.O=C(O)C(F)(F)F (centres unmarked),-9.821%,15.91% & 0.2623%
CCn1cnnc1C1CCN(C(=O)c2ccc(C(=O)OC)s2)CC1,-5.184%,-23.09%
O=S(=O)(Nc1c(F)cccc1N1CCCC1)c1cncc(F)c1,30.19%,24.76%
CC(C)c1nn(C)c(N(C)C)c1CNCc1cccc2cccnc12.Cl,13.35%,6.361%
CS(=O)(=O)N1CCC2(CC1)NCCn1c(-c3ccccc3)cnc12.O=C(O)C(F)(F)F.O=C(O)C(F)(F)F,6.55%,-7.145% & 4.508%
CN1Cc2ccccc2CC2(CCN(c3ncc(F)cn3)CC2)C1=O,7.277%,18.08% & 4.242%
COC(=O)CC(C1=Cc2ccccc2OC1)c1oc(C)cc(=O)c1O (centres unmarked),-26.12%,-5.107%
COCc1cc(N(C)Cc2ncnn2C)nc(C(C)(C)C)n1,3.603%,3.524% & 7.343%
Cc1cccc(Nc2cc(C3CCCN(CC(N)=O)C3)ccn2)n1.O=CO.O=CO (centres unmarked),-10.93% & -11.72%,-14.9%
Cc1cc(C)cc(CN2CCN(Cc3cc(C#N)n(C)c3)CC2=O)c1,-9.645%,24.19%
O=C(COCC1CC1)Nc1ccn(Cc2cccc3cccnc23)n1,-24.77%,37.81%
O=C(O)C(F)(F)F.O=C(O)C(F)(F)F.[H][C@@]12COC[C@]1(COCc1ccccn1)CN(Cc1cccc(OC)c1)C2,-10.6%,-1.213%
O=C(NCCOc1ccc(Cl)cn1)Nc1ccccn1,-6.02% & -7.532%,19.32%
CC(=O)N(C)C1CCN(c2ncc3c(n2)CCN3c2ccccc2)C1 (centres unmarked),-2.098%,-38.19%
CCN(CC)c1ccc(NC(=O)NCC2(C(N)=O)CCOCC2)cn1,-22.83%,-65.49% & -1.061%
O=C(NCc1ccccc1)NCC1CCN(Cc2ccsc2)CC1,14.58%,23.99%
O=S(=O)(NCC1CCCN(Cc2ccccc2F)C1)C1CC1 (centres unmarked),-7.305%,-3.792%
CCn1ccc2ccnc(CC3CN(C(=O)Cn4ccnc4C)C3)c21.O=CO,6.092%,4.441%
c1ccc(-n2nnnc2CN2CCCC(Cn3cncn3)C2)cc1 (centres unmarked),-12.96%,-21.29%
Cn1cc(C(=O)NCc2cn3c(n2)CN(Cc2ccccn2)CC3)cn1.O=C(O)C(F)(F)F.O=C(O)C(F)(F)F,8.965% & 21.41%,-2.057%
O=C(NCCOc1ccc(C(F)(F)F)cn1)c1ccoc1,9.712%,28.97%
Cc1ccc(CN2C[C@@H](C(=O)O)[C@H](c3cccnc3)C2)s1,15.15%,-8.866%
COC(=O)C(NC(=O)COC1CCCCC1)c1ccccc1 (centres unmarked),4.324%,21.13% & 20.79%
Cc1cnc(N)c(C(=O)C2CCN(C(=O)C3CCC3)CC2)c1,-10.44%,7.986%
Cc1cnc(N2CCC3(C2)CN(S(=O)(=O)C2CC2)C3)nc1,-11.36%,5.128%
Cc1cc(C(F)(F)F)cc(N2CCN(Cc3ccccc3)CC(O)C2)n1 (centres unmarked),19.05%,22.65%
COCCNc1ccccc1CNC(=O)NCc1nc(C)c(C)s1,1.494%,0.9016%
[H][C@]12CC[C@]([H])(CN(Cc3cc(=O)c4cc(C)ccc4[nH]3)C1)N(CCOC)C2,-3.498% & -10.21%,-9.666%

3 of the entries, repeated:

* [H][C@]12CC[C@]([H])(CN(Cc3cc(=O)c4cc(C)ccc4[nH]3)C1)N(CCOC)C2 : A: -3.498% & -10.21%; B: -9.666%
* CC(C)C1=NOC2(CCN(S(C)(=O)=O)CC2)C1 : A: 5.443%; B: 9.183%
* CCN(CC)c1ccc(NC(=O)NCC2(C(N)=O)CCOCC2)cn1 : A: -22.83%; B: -65.49% & -1.061%